Test results: WO2024101382A1 (dated 2024)
Results are given in words; binding and its absence hold for the method and conditions named. Some binding calls cover weakened binding; strength is not graded here. For some of these results: Tags and fused reporters may be left off the sequences shown.

Assays:
[1] = target: T1, Mouse LSR on 4T1 and MC-38-mLSR-13 cells (mouse) (UniProt Q99KG5); assay: flow cytometry on mouse tumour cell lines, #27-6mF18 as primary antibody
T1 sequence (looked up): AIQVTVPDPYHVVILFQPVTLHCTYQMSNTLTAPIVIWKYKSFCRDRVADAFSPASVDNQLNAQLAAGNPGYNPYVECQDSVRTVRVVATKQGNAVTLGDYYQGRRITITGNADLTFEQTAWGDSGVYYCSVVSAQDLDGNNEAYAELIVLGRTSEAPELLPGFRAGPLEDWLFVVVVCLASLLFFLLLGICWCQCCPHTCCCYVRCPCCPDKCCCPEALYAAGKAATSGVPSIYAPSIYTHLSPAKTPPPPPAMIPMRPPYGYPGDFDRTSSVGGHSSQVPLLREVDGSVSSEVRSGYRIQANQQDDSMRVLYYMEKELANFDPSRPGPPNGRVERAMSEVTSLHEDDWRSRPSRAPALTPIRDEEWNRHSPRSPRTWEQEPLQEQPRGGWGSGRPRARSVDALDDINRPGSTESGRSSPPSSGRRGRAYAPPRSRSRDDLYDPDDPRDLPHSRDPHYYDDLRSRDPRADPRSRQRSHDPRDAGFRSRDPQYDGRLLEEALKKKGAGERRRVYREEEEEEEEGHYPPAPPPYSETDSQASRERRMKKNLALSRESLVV

[2] = target: T2, Recombinant rat LSR-Fc (rat) (UniProt Q9WU74); assay: ELISA, LSR-Fc coated on plate
T2 sequence (looked up): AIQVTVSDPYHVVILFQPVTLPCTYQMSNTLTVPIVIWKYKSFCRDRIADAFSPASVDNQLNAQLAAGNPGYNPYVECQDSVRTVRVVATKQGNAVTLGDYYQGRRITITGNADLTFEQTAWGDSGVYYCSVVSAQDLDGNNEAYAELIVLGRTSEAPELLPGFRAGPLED

[3] = target: Recombinant cynomolgus monkey LSR-Fc (cynomolgus monkey); assay: ELISA, LSR-Fc coated on plate
[4] = target: T3, Recombinant human LSR-Fc (human) (UniProt Q86X29); assay: ELISA, LSR-Fc coated on plate
T3 sequence: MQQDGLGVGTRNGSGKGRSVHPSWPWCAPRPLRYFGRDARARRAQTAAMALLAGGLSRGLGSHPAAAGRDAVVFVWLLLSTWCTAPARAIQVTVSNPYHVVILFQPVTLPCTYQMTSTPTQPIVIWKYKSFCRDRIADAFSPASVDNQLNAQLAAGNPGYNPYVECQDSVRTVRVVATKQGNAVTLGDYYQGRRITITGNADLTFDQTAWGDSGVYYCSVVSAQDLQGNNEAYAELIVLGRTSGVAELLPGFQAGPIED

Measured: binding

B1: Chicken mouse chimeric anti-LSR antibody (#27-6mF18) (antibody, V domains shown)
VH: AVTLDESGGGLQMPGGALSLVCRASGFDFSSYEMQWIRQAPGKGLEWVAGISGAGSGTRYGSAVKGRATISRDNGQSTVRLQLNNLRAEDTGIYFCARSSNIDAWGHGTEVTVST
VL: ALTQPASVSANLGGTVKITCSGGGRYAESYYYGWYQQKSPGSTPVTVIYWNDKRPSNIPSRFSGSLSGSTNTLTITGVQVEDEAVYFCGSYEDSRSAFGAGTTLTV
notes: Chicken-mouse chimeric antibody; also called anti-LSR monoclonal antibody #27-6 mF-18
binds: [1] | [2] | [3] | [4]
